Reference: PubChem BioAssay AID652259 (Drosophila RNAi Screening Center, 2013)
In all, the deposit lists about 22,000 reagents; this is a random part of those with a known target gene and a result. Over the whole deposit, 233 (1.1%) are marked active. 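Light values are raw, unnormalised plate reads; the ratio scores behind the reporter calls were not deposited.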 Not stated in the record: the amount of reagent, the time to read-out, the dose of the treatment.

- Screen: 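Identify new Wingless signalling regulators in fly cells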 (primary screen)
- Cell system: Drosophila clone 8 imaginal disc epithelial cells
- Reagents: long dsRNA against Drosophila genes
- Conditions: pathway stimulated by co-transfected Wingless expression plasmid
- Measurement: 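Dual luciferase reads per well after Wingless plasmid stimulation: reporter firefly light and Renilla control light; activity is firefly divided by Renilla, a ratio not deposited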
- Reading the numbers: firefly reporter light: higher = more Wg reporter light, before normalisation; Renilla control light: higher = more transfected or surviving cells
- Hit rule: 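a knock-down is a candidate when at least two out of four statistical tests show it departing from its plate mean; one test alone signals a weak candidate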
- Calls: active = candidate regulator (raises or lowers reporter); inactive = not a candidate

CG14515 [DRSC14867]
- firefly reporter light, replicate 1: 5192
- Renilla control light, replicate 1: 2155
- Outcome: inactive

CG14322 [DRSC14801]
- firefly reporter light, replicate 1: 9782
- Renilla control light, replicate 1: 1850
- Outcome: inactive

Acbp3 [DRSC11022]
- firefly reporter light, replicate 1: 1930
- firefly reporter light, replicate 2: 9259
- Renilla control light, replicate 1: 1553
- Renilla control light, replicate 2: 3883
- Outcome: inactive

Itgbn [DRSC03493]
- firefly reporter light, replicate 1: 3216
- firefly reporter light, replicate 2: 7140
- Renilla control light, replicate 1: 1139
- Renilla control light, replicate 2: 3500
- Outcome: inactive

SoxN [DRSC03440]
- firefly reporter light, replicate 1: 4499
- firefly reporter light, replicate 2: 8726
- Renilla control light, replicate 1: 1723
- Renilla control light, replicate 2: 4656
- Outcome: inactive

SoxN [DRSC21779]
- firefly reporter light, replicate 1: 6.08e5
- firefly reporter light, replicate 2: 5.52e5
- Renilla control light, replicate 1: 1.85e5
- Renilla control light, replicate 2: 1.40e5
- Outcome: inactive

Eo [DRSC20187]
- firefly reporter light, replicate 1: 21683
- Renilla control light, replicate 1: 12833
- Outcome: inactive

CG12219 [DRSC17829]
- firefly reporter light, replicate 1: 8198
- Renilla control light, replicate 1: 6057
- Outcome: inactive

CG14204 [DRSC19559]
- firefly reporter light, replicate 1: 19847
- Renilla control light, replicate 1: 9094
- Outcome: inactive

CG1824 [DRSC19796]
- firefly reporter light, replicate 1: 17904
- Renilla control light, replicate 1: 8308
- Outcome: inactive

Zmynd8 [DRSC15310]
- firefly reporter light, replicate 1: 1579
- firefly reporter light, replicate 2: 7080
- Renilla control light, replicate 1: 672
- Renilla control light, replicate 2: 1964
- Outcome: inactive

CG4021 [DRSC04439]
- firefly reporter light, replicate 1: 2547
- firefly reporter light, replicate 2: 9969
- Renilla control light, replicate 1: 778
- Renilla control light, replicate 2: 3843
- Outcome: inactive

2 neighbouring reagents from above, for reference:
Itgbn [DRSC03493]
- firefly reporter light, replicate 1: 3216
- firefly reporter light, replicate 2: 7140
- Renilla control light, replicate 1: 1139
- Renilla control light, replicate 2: 3500
- Outcome: inactive

SoxN [DRSC03440]
- firefly reporter light, replicate 1: 4499
- firefly reporter light, replicate 2: 8726
- Renilla control light, replicate 1: 1723
- Renilla control light, replicate 2: 4656
- Outcome: inactive
